Data published in US9045390B2, “Haloalkylmethyleneoxyphenyl-substituted ketoenols” (Bayer CropScience AG, priority 2009, dated 2015).
Some of these results come from one statement about several compounds together. For part of these data: At least one compound was matched to its structure with a doubt left.

What was measured:
Assay type in all cases: in vivo
Alopecurus myosuroides [1] = assay: Herbicidal pre-emergence action; conditions: approx. three weeks
Echinocloa crus-galli [2] = assay: Herbicidal pre-emergence action; conditions: approx. three weeks
[3] = test system: larvae of the mustard beetle (Phaedon cochleariae); assay: Phaedon test (PHAECO spray treatment); conditions: application rate 500 g/ha, Chinese cabbage leaf discs
Lolium multiflorum [4] = assay: Herbicidal pre-emergence action; conditions: approx. three weeks
Setaria viridis [5] = assay: Herbicidal pre-emergence action; conditions: approx. three weeks
[6] = test system: caterpillars of the army worm (Spodoptera frugiperda); assay: Spodoptera frugiperda test (SPODFR spray treatment); conditions: application rate 500 g/ha, maize leaf discs
[7] = test system: two-spotted spider mite (Tetranychus urticae); assay: Tetranychus test; OP-resistant (TETRUR spray treatment); conditions: application rate 100 g/ha, french bean leaf discs
[8] = test system: green peach aphid (Myzus persicae); assay: Myzus test (MYZUPE spray treatment); conditions: application rate 500 g/ha, Chinese cabbage leaf discs
Method: Myzus Test (MYZUPE Spray Treatment)
To prepare an appropriate active ingredient preparation, 1 part by weight of active ingredient is mixed with the stated amounts of solvent and emulsifier, and the concentrate is diluted with emulsifier-containing water to the desired concentration.
Discs of Chinese cabbage (Brassica pekinensis) infected by all stages of the green peach aphid (Myzus persicae) are sprayed with an active ingredient preparation of the desired concentration.
After the desired time, the effect in % is determined. 100% means that all of the aphids have been killed; 0% means that none of the aphids have been killed.

Lolium multiflorum [9] = assay: Herbicidal post-emergence action; conditions: 80 g/ha, about three weeks
Boophilus microplus = Boophilus microplus test (BOOPMI injection); conditions: application rate 20 ppm, injection into the abdomen
Avena fatua = assay: Herbicidal post-emergence action; conditions: 80 g/ha, about three weeks
Veronica persica = assay: Herbicidal post-emergence action; conditions: 80 g/ha, about three weeks
Echinocloa crus-galli [10] = assay: Herbicidal post-emergence action; conditions: 80 g/ha, about three weeks
Setaria viridis [11] = assay: Herbicidal post-emergence action; conditions: 80 g/ha, about three weeks
Alopecurus myosuroides [12] = assay: Herbicidal post-emergence action; conditions: 80 g/ha, about three weeks
Meloidogyne incognita = Meloidogyne incognita test (MELGIN); conditions: application rate 20 ppm, lettuce
Lucilia cuprina larvae = assay: Lucilia cuprina test (LUCICU); conditions: application rate 100 ppm, treated horse meat

CCc1cc(OCC(F)(F)F)cc(C)c1C1=C(O)C2CCCN2C1=O (stereo not drawn) [Example I-1-a-21]
≥ 80%: herbicidal effect in per cent (Alopecurus myosuroides [1]; 80 g/ha a.i.) | herbicidal effect in per cent (Echinocloa crus-galli [2]; 80 g/ha a.i.) | effect in % (beetle larvae killed) [3] | herbicidal effect in per cent (Lolium multiflorum [4]; 80 g/ha a.i.) | herbicidal effect in per cent (Setaria viridis [5]; 80 g/ha a.i.)

CCOC(=O)OC1=C(c2c(C)cc(OCC(F)(F)F)cc2CC)C(=O)N[C@]12CC[C@@H](OC)CC2 [Example I-1-c-1]
≥ 80%: effect in % (caterpillars killed) [6] | effect in % (spider mites killed) [7] | herbicidal effect in per cent (Alopecurus myosuroides [1]; 80 g/ha a.i.) | herbicidal effect in per cent (Echinocloa crus-galli [2]; 80 g/ha a.i.) | herbicidal effect in per cent (Lolium multiflorum [4]; 80 g/ha a.i.) | effect in % (aphids killed) [8] | herbicidal effect in per cent (Setaria viridis [5]; 80 g/ha a.i.)

COCC1CCC2(C1)NC(=O)C(c1c(C)cc(OCC(F)(F)F)cc1C)=C2O (stereo not drawn) [Example I-1-a-33]
≥ 80%: herbicidal effect in per cent (Alopecurus myosuroides [1]; 320 g/ha a.i.) | herbicidal effect in per cent (Echinocloa crus-galli [2]; 320 g/ha a.i.) | effect in % (beetle larvae killed) [3] | herbicidal effect in per cent (Lolium multiflorum [4]; 320 g/ha a.i.) | effect in % (aphids killed) [8] | herbicidal effect in per cent (Setaria viridis [5]; 320 g/ha a.i.)

CCOC(=O)OC1=C(c2c(C)cc(OCC(F)(F)F)cc2CC)C(=O)N[C@]12CC[C@@H](OC)CC2 [Example I-1-c-5]
≥ 80%: herbicidal effect in per cent (Lolium multiflorum [9]) | effect in % (laying of fertile eggs) (Boophilus microplus) | herbicidal effect in per cent (Avena fatua) | herbicidal effect in per cent (Veronica persica) | herbicidal effect in per cent (Echinocloa crus-galli [10]) | herbicidal effect in per cent (Setaria viridis [11]) | herbicidal effect in per cent (Alopecurus myosuroides [12])

COCC1CCC2(C1)NC(=O)C(c1c(C)cc(OCC(F)(F)F)cc1C)=C2O (stereo not drawn) [Example I-1-a-34]
≥ 80%: herbicidal effect in per cent (Lolium multiflorum [9]) | herbicidal effect in per cent (Avena fatua) | herbicidal effect in per cent (Veronica persica) | herbicidal effect in per cent (Echinocloa crus-galli [10]) | herbicidal effect in per cent (Setaria viridis [11]) | herbicidal effect in per cent (Alopecurus myosuroides [12])

CCO[C@H]1CCC[C@@]2(C1)NC(=O)C(c1c(C)cc(OCC(F)(F)F)cc1C)=C2O [Example I-1-a-1]
≥ 80%: herbicidal effect in per cent (Lolium multiflorum [9]) | herbicidal effect in per cent (Alopecurus myosuroides [1]; 80 g/ha a.i.) | herbicidal effect in per cent (Echinocloa crus-galli [2]; 80 g/ha a.i.) | effect in % (beetle larvae killed) [3] | herbicidal effect in per cent (Avena fatua) | herbicidal effect in per cent (Lolium multiflorum [4]; 80 g/ha a.i.) | effect in % (aphids killed) [8] | herbicidal effect in per cent (Echinocloa crus-galli [10]) | herbicidal effect in per cent (Setaria viridis [11]) | herbicidal effect in per cent (Alopecurus myosuroides [12]) | herbicidal effect in per cent (Setaria viridis [5]; 80 g/ha a.i.)

CCc1cc(OCC(F)(F)F)cc(C)c1C1=C(OC(=O)C(C)C)[C@]2(CC[C@H](OC)CC2)NC1=O [Example I-1-b-1]
≥ 80%: herbicidal effect in per cent (Lolium multiflorum [9]) | effect in % (spider mites killed) [7] | herbicidal effect in per cent (Alopecurus myosuroides [1]; 80 g/ha a.i.) | herbicidal effect in per cent (Echinocloa crus-galli [2]; 80 g/ha a.i.) | herbicidal effect in per cent (Avena fatua) | herbicidal effect in per cent (Lolium multiflorum [4]; 80 g/ha a.i.) | effect in % (aphids killed) [8] | herbicidal effect in per cent (Veronica persica) | herbicidal effect in per cent (Echinocloa crus-galli [10]) | herbicidal effect in per cent (Setaria viridis [11]) | herbicidal effect in per cent (Alopecurus myosuroides [12]) | herbicidal effect in per cent (Setaria viridis [5]; 80 g/ha a.i.)

CCc1cc(OCC(F)(F)F)cc(C)c1C1=C(O)C2(CCCC(OC)C2)NC1=O (stereo not drawn) [Example I-1-a-13]
≥ 80%: herbicidal effect in per cent (Alopecurus myosuroides [1]; 320 g/ha a.i.) | herbicidal effect in per cent (Echinocloa crus-galli [2]; 320 g/ha a.i.) | effect in % (beetle larvae killed) [3] | herbicidal effect in per cent (Lolium multiflorum [4]; 320 g/ha a.i.) | effect in % (aphids killed) [8] | herbicidal effect in per cent (Setaria viridis [5]; 320 g/ha a.i.)

CCOC(=O)OC1=C(c2c(CC)cc(OCC(F)(F)F)cc2CC)C(=O)NC12CCC(OC)CC2 (stereo not drawn) [Example I-1-c-4]
≥ 80%: herbicidal effect in per cent (Lolium multiflorum [9]) | effect in % (laying of fertile eggs) (Boophilus microplus) | effect in % (spider mites killed) [7] | herbicidal effect in per cent (Alopecurus myosuroides [1]; 80 g/ha a.i.) | herbicidal effect in per cent (Echinocloa crus-galli [2]; 80 g/ha a.i.) | herbicidal effect in per cent (Avena fatua) | herbicidal effect in per cent (Lolium multiflorum [4]; 80 g/ha a.i.) | effect in % (aphids killed) [8] | herbicidal effect in per cent (Veronica persica) | herbicidal effect in per cent (Echinocloa crus-galli [10]) | herbicidal effect in per cent (Setaria viridis [11]) | herbicidal effect in per cent (Alopecurus myosuroides [12]) | herbicidal effect in per cent (Setaria viridis [5]; 80 g/ha a.i.)

CO[C@H]1CC[C@]2(CC1)NC(=O)C(c1c(C)cc(OCC(F)(F)F)cc1C)=C2OC(=O)C(C)C [Example I-1-b-2]
≥ 80%: herbicidal effect in per cent (Lolium multiflorum [9]) | herbicidal effect in per cent (Alopecurus myosuroides [1]; 320 g/ha a.i.) | herbicidal effect in per cent (Echinocloa crus-galli [2]; 320 g/ha a.i.) | herbicidal effect in per cent (Avena fatua) | herbicidal effect in per cent (Lolium multiflorum [4]; 320 g/ha a.i.) | herbicidal effect in per cent (Veronica persica) | herbicidal effect in per cent (Echinocloa crus-galli [10]) | herbicidal effect in per cent (Setaria viridis [11]) | herbicidal effect in per cent (Alopecurus myosuroides [12]) | herbicidal effect in per cent (Setaria viridis [5]; 320 g/ha a.i.)

Cc1cc(OCC(F)(F)F)cc(C)c1C1=C(O)C2(CCC(OCC(F)(F)F)CC2)NC1=O (mixture of isomers) [Example I-1-a-39]
≥ 80%: effect in % (caterpillars killed) [6] | herbicidal effect in per cent (Lolium multiflorum [9]) | herbicidal effect in per cent (Alopecurus myosuroides [1]; 320 g/ha a.i.) | herbicidal effect in per cent (Echinocloa crus-galli [2]; 320 g/ha a.i.) | herbicidal effect in per cent (Avena fatua) | herbicidal effect in per cent (Lolium multiflorum [4]; 320 g/ha a.i.) | effect in % (aphids killed) [8] | herbicidal effect in per cent (Veronica persica) | herbicidal effect in per cent (Echinocloa crus-galli [10]) | herbicidal effect in per cent (Setaria viridis [11]) | herbicidal effect in per cent (Alopecurus myosuroides [12]) | herbicidal effect in per cent (Setaria viridis [5]; 320 g/ha a.i.)

COC1CCC2(CC1)NC(=O)C(c1cc(OCC(F)(F)F)ccc1C)=C2O (stereo not drawn) [Example I-1-a-27]
≥ 80%: effect in % (caterpillars killed) [6] | effect in % (beetle larvae killed) [3] | effect in % (aphids killed) [8]

COC1(C)CCC2(CC1)NC(=O)C(c1c(C)cc(OCC(F)(F)F)cc1C)=C2O (stereo not drawn) [Example I-1-a-36]
≥ 80%: effect in % (caterpillars killed) [6] | effect in % (aphids killed) [8]

CCOC(=O)OC1=C(c2c(C)ccc(OCC(F)(F)F)c2C)C(=O)NC12CCC(OCC)CC2 (stereo not drawn) [Example I-1-c-6]
≥ 80%: nematicidal effect by gall formation in % (Meloidogyne incognita) | effect in % (spider mites killed) [7] | herbicidal effect in per cent (Alopecurus myosuroides [1]; 320 g/ha a.i.) | herbicidal effect in per cent (Echinocloa crus-galli [2]; 320 g/ha a.i.) | effect in % (beetle larvae killed) [3] | herbicidal effect in per cent (Lolium multiflorum [4]; 320 g/ha a.i.) | effect in % (aphids killed) [8] | herbicidal effect in per cent (Setaria viridis [5]; 320 g/ha a.i.)

Cc1cc(OCC(F)(F)F)cc(C)c1C1=C(O)C2(CCC(C)CC2)NC1=O (stereo not drawn) [Example I-1-a-18]
≥ 80%: herbicidal effect in per cent (Lolium multiflorum [9]) | herbicidal effect in per cent (Alopecurus myosuroides [1]; 80 g/ha a.i.) | herbicidal effect in per cent (Echinocloa crus-galli [2]; 80 g/ha a.i.) | effect in % (beetle larvae killed) [3] | herbicidal effect in per cent (Avena fatua) | herbicidal effect in per cent (Lolium multiflorum [4]; 80 g/ha a.i.) | effect in % (aphids killed) [8] | herbicidal effect in per cent (Veronica persica) | herbicidal effect in per cent (Echinocloa crus-galli [10]) | herbicidal effect in per cent (Setaria viridis [11]) | herbicidal effect in per cent (Alopecurus myosuroides [12]) | herbicidal effect in per cent (Setaria viridis [5]; 80 g/ha a.i.)

COC1CCC2(CC1)OC(=O)C(c1c(C)cc(OCC(F)(F)F)cc1C)=C2O (stereo not drawn) [Example I-2-a-5]
≥ 80%: herbicidal effect in per cent (Lolium multiflorum [9]) | effect in % (laying of fertile eggs) (Boophilus microplus) | effect in % (spider mites killed) [7] | herbicidal effect in per cent (Alopecurus myosuroides [1]; 320 g/ha a.i.) | herbicidal effect in per cent (Echinocloa crus-galli [2]; 320 g/ha a.i.) | effect in % (beetle larvae killed) [3] | herbicidal effect in per cent (Avena fatua) | herbicidal effect in per cent (Lolium multiflorum [4]; 320 g/ha a.i.) | effect in % (aphids killed) [8] | herbicidal effect in per cent (Veronica persica) | herbicidal effect in per cent (Echinocloa crus-galli [10]) | herbicidal effect in per cent (Setaria viridis [11]) | herbicidal effect in per cent (Alopecurus myosuroides [12]) | herbicidal effect in per cent (Setaria viridis [5]; 320 g/ha a.i.) | kill in % (Lucilia cuprina larvae)
